Patent US20130184318A1, “[…] […]” (THE REGENTS OF THE UNIVERSITY OF CALIFORNIA, priority 2010, published 2013)
“Also recorded” adds a separate entry of the source. At least one compound was matched to its structure with a doubt left.

Tested on: Versican
Test: Versican isoform (V0, V1) mRNA expression in HTM cells on 400 nm pitch topography
Assay type: cell-based, human
Details: dexamethasone, 400 nm pitch surfaces

C[C@@H]1C[C@H]2[C@@H]3CCC4=CC(=O)C=C[C@]4(C)[C@@]3(F)[C@@H](O)C[C@]2(C)[C@@]1(O)C(=O)CO [dexamethasone]
effect on topography-induced increase of versican V0 and V1 isoform expression: negated the effects of the biophysical cues; also recorded: appeared to negate the effect
